{"sequences": {"note": "The chains behind the UniProt entries cited, without tags or fusion partners. Residues count along the entry.", "UniProt P08920, residues 23-344": "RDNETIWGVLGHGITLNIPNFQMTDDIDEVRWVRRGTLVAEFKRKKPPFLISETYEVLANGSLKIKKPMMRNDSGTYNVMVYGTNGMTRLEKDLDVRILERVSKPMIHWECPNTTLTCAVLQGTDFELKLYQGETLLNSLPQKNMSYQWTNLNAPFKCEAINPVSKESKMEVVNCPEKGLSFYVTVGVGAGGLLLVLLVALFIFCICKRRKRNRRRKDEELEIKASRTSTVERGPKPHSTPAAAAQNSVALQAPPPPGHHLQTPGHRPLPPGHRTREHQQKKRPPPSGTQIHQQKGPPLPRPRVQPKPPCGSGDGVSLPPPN"}, "source": "paper PMC4660202", "key": {"[1]": {"molecular_target": "mouse CD2-mCherry (mouse) (UniProt P08920)", "test": "single-molecule brightness analysis (photon-counting histogram, PCMH); lysates of spermatozoa or of COS-7 cells in 1% Triton X-100/PBS, supernatant after 15,000g; brightness of mCherry fusions compared with mCherry, CD2-mCherry (monomer) and MYOCILIN-mCherry (dimer)"}, "[2]": {"molecular_target": "mouse CD2-mCherry (mouse) (UniProt P08920)", "test": "single-molecule brightness analysis (photon-counting histogram, PCMH); plasma membrane fraction of COS-7 cells solubilised with 1% Triton X-100 in PBS"}}, "note": "Results are given in words; binding and its absence hold for the method and conditions named.", "data": [{"substance": "mouse CD2-mCherry (from UniProt P08920 23-344)", "values": [{"measurement": "binding", "setting": "[1]", "value": "no binding"}, {"measurement": "binding", "setting": "[2]", "value": "no binding"}]}]}
